The source of these data is patent US20200131227A1, “POLYPEPTIDE WITH TUMOUR BINDING ACTIVITY” (RUPRECHT-KARLS-UNIVERSITÄT HEIDELBERG, priority 2017, published 2020).

The chains behind the UniProt entries cited, without tags or fusion partners. Where a name states a change or a piece, a line headed by the entry shows the natural chain unless it says otherwise.
UniProt P06756: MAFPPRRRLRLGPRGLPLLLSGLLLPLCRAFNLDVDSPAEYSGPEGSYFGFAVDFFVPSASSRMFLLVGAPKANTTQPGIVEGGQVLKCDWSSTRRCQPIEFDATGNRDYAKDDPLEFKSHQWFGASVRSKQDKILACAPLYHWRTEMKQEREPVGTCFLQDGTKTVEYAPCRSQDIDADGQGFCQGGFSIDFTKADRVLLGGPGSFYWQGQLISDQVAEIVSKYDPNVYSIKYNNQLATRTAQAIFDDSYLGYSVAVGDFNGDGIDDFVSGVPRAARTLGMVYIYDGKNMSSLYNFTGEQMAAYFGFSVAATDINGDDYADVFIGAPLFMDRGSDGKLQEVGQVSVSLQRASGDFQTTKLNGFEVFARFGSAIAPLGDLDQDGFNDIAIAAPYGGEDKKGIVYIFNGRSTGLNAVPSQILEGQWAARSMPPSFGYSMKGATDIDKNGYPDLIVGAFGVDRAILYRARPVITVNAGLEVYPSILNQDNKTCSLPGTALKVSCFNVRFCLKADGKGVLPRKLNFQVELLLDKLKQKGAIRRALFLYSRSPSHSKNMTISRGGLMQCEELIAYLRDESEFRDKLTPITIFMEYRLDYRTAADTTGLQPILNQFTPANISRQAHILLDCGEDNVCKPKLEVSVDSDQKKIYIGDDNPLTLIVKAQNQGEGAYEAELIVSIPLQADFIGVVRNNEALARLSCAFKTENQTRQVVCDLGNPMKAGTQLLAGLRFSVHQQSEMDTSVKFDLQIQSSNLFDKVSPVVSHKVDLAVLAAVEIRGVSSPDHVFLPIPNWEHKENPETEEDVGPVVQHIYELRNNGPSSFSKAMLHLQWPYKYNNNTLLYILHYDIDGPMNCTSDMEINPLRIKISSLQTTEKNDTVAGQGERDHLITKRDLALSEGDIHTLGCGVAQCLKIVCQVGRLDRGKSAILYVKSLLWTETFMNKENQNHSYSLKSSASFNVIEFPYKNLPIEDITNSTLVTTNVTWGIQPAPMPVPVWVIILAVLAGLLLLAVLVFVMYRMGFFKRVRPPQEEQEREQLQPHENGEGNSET
UniProt P18564: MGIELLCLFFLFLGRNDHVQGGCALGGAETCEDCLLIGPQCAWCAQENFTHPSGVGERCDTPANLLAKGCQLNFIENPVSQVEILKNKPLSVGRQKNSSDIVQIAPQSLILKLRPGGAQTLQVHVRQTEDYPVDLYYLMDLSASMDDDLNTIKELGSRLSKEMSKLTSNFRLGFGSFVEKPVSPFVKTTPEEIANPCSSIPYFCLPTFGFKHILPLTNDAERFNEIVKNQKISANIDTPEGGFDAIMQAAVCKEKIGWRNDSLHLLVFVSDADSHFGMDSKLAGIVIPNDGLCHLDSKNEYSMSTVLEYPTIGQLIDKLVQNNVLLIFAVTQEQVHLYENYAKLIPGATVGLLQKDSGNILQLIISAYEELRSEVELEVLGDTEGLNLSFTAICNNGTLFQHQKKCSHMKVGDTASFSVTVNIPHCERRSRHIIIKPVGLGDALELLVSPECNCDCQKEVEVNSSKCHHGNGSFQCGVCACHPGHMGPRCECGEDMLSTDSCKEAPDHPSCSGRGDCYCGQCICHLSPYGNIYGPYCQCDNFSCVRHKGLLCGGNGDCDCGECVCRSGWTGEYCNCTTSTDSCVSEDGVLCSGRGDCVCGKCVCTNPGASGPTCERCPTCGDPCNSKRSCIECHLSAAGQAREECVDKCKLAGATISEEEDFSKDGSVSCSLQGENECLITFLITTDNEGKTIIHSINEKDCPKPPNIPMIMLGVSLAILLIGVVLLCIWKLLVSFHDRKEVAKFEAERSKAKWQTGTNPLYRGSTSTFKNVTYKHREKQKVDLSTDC

These are yes or no findings as the source states them, for the method shown. Some entries that bind do so weakly or less than the wild type.

The test deals with integrin αvβ6 (ITGαvβ6) as expressed on human carcinoma cell lines and tumor tissue sections (human) (UniProt P06756+P18564). The test can be described thus: uptake of 125I-labelled peptides on HNSCC cell lines, 60 min.

For the molecule GRCTRRGDLAFICYPD (disulfide bond between the two Cys; 125I on the tyrosine) [SFLAP1], the binding result was “binds”.
